From US9035022B2 (Salk Institute for Biological Studies, priority 2010, dated 2015)

Assay: general procedure: Boc solid-phase peptide synthesis; MBHA resin; carbodiimides such as DIC, DCC
Conditions: whole synthesis

Question: With [CMP^19, Aib^24,32]-Astressin B as the substance, how does the “final HPLC purity” value (capillary zone electrophoresis (CZE) and analytical RP-HPLC at 214 nm) read?
Answer: 94%

Question: For “cyclo(30-33)[DPhe^12,Nle^21,38,Leu(Me)^27,40,Glu^30,DAph(Cbm)^32,Lys^33]Ac-hCRF (9-41); [DAph(Cbm)^24]Astressin B”, which “final HPLC purity” value (214 nm) is on record?
Answer: 78%
